# Experimental data: PubChem BioAssay AID1259308 (NCATS, 2017)
# Assay: 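Candidate targets for better recombinant protein yield in mammalian cells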 (primary screen)
# Cell system: human HEK293 embryonic kidney cells stably expressing firefly luciferase (HEK-CMV-Luc2-Hygro)
# Reagent: single siRNA against human genes, 0.8 pmol siRNA per well
# Duration: 72 h
# Measured: 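Luciferase light (ONE-Glo) measured on one replicate plate set and viability (CellTiter-Glo) on the other, scaled to a negative control siRNA, with robust z-scores and luciferase per cell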
# Scale: total luciferase, z-score and total luciferase, % of control: higher = more reporter protein produced; luciferase per cell, z-score: higher = more reporter output per viable cell; viable cells, % of control: higher = more viable cells
# Call rule: 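Active when the median/MAD z-score for overall luciferase is greater than 3; a gene was taken forward for validation with new siRNAs if at least two of its three siRNAs passed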
# Calls: active = raised luciferase; inactive = no rise
# The whole screen tested about 59,000 reagents; below is a part drawn at random. In the full data, about 1,510 (2.6%) got an active call. 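Calls use total luciferase alone and ignore viability, so some active siRNAs may act by altering cell number.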 Unmarked entries are inactive. Reagents against one gene are numbered here.
target,siRNA no.,"total luciferase, z-score","total luciferase, % of control","luciferase per cell, z-score","viable cells, % of control"
PRPF4 (pre-mRNA splicing tri-snRNP complex factor PRPF4),1,0.695,95.7,0.796,86.7
PRPF4 (pre-mRNA splicing tri-snRNP complex factor PRPF4),2,1.89,119,2.63,66.8
PRPF4 (pre-mRNA splicing tri-snRNP complex factor PRPF4),3,0.631,94.4,1.18,77.3
LOX (lysyl oxidase),1,1.21,106,1.53,79.1
LOX (lysyl oxidase),2,2.08,123,2.54,70.6
LOX (lysyl oxidase),3,1.01,102,0.595,97.3
PLEKHA7 (pleckstrin homology domain containing A7),1,-0.897,64,-1.2,98.1
PLEKHA7 (pleckstrin homology domain containing A7),2,-0.0989,79.9,-0.00394,89.4
PLEKHA7 (pleckstrin homology domain containing A7),3,0.33,88.5,0.43,88.3
DNAJC19 (DnaJ heat shock protein family (Hsp40) member C19),1,-1.55,51,-1.34,81.1
DNAJC19 (DnaJ heat shock protein family (Hsp40) member C19),2,-0.164,78.6,0.381,79.5
DNAJC19 (DnaJ heat shock protein family (Hsp40) member C19),3,0.442,90.7,0.846,81.1
AMBRA1 (autophagy and beclin 1 regulator 1),1,-1.4,54,-1.38,86.7
AMBRA1 (autophagy and beclin 1 regulator 1),2,-1.19,58.3,-1.45,95.4
AMBRA1 (autophagy and beclin 1 regulator 1),3,-0.429,73.4,-0.142,85.1
OR6C4 (olfactory receptor family 6 subfamily C member 4),1,0.461,91,-0.109,105
OR6C4 (olfactory receptor family 6 subfamily C member 4),2,-0.221,77.5,0.151,83.2
OR6C4 (olfactory receptor family 6 subfamily C member 4),3,-0.29,76.1,-0.0571,86.3
CCL3 (C-C motif chemokine ligand 3),1,-0.914,63.7,-0.208,75.2
CCL3 (C-C motif chemokine ligand 3),2,0.553,92.9,-0.256,111
CCL3 (C-C motif chemokine ligand 3),3,-0.0332,81.2,-0.322,98.8
TRIT1 (tRNA isopentenyltransferase 1),1,-0.478,72.4,-0.656,96.1
TRIT1 (tRNA isopentenyltransferase 1),2,0.111,84.1,-0.248,100
TRIT1 (tRNA isopentenyltransferase 1),3,0.212,86.1,-0.224,102
IFNG (interferon gamma),1,0.423,90.3,0.29,93.5
IFNG (interferon gamma),2,-1.19,58.3,-1.04,85.6
IFNG (interferon gamma),3,-0.0761,80.4,0.106,87.3
CCDC121 (coiled-coil domain containing 121),1,0.3,87.8,0.674,82.2
CCDC121 (coiled-coil domain containing 121),2,1.06,103,0.217,109
CCDC121 (coiled-coil domain containing 121),3,0.311,88.1,0.284,91.3
SLC6A8,1,0.706,95.9,0.113,104
SLC6A8,2,0.956,101,0.559,97.3
SLC6A8,3,3.12 (active),144,2.04,93.9
MRPL43 (mitochondrial ribosomal protein L43),1,-0.284,76.2,-0.827,106
MRPL43 (mitochondrial ribosomal protein L43),2,0.29,87.7,0.0394,96.9
MRPL43 (mitochondrial ribosomal protein L43),3,-0.312,75.7,0.202,80.2
SLC46A3,1,-1.02,61.5,-0.612,80.8
SLC46A3,2,0.536,92.6,-0.0955,106
SLC46A3,3,-1.53,51.4,-1.28,80.5
